At least one compound was matched to its structure with a doubt left.
Tested on: isolated rat adipocytes
Assay: Glucose transport (2-deoxyglucose uptake) in isolated rat adipocytes
Type: cell-based
Conditions: B6V10 25 μM, 45 min; wortmannin 2 μM, LY294002 10 μM
Method: In order to determine whether salts formed by vanadate and benzylamine could produce an insulin mimetic effect, the effect of increasing concentrations of hexaquis(benzylammonium) decavanadate on glucose transport activity in isolated rat adipocytes was tested. […] In similar assays, the activity of hexaquis(benzylammonium) decavanadate, pentaquis(benzylammonium) decavanadate and tetraquis(benzylammonium) decavanadate on glucose transport activity in isolated rat adipocytes were analyzed.
To determine the possible insulin mimetic effect of certain vanadium arylalkylamines, the capacity of these compounds to enhance glucose transport in isolated rat adipocytes was tested. […] Subsequently, 2-DG transport was measured over a 5 min. interval.
The effects of the three tested compounds (B6V10, B5V10 and B4V10) were compared. […] 2-DG transport was measured over 5 min. intervals. […]
The effects of incubation with semicarbazide or phosphatidylinositol 3-kinase inhibitors were also investigated. Adipose cells were incubated with B6V10 (25 μM, 45 min) in the absence or presence of wortmannin (2 μM, 45 min), LY294002 (10 μM, 45 min) or semicarbazide (1 mM, 45 min) and thereafter 2-deoxyglucose uptake was determined during 5 min.

Structure (SMILES) | effect on B6V10-induced glucose transport
O=c1cc(N2CCOCC2)oc2c(-c3ccccc3)cccc12 [LY294002, reference compound] | blocked B6V10-induced glucose transport
COC[C@H]1OC(=O)c2coc3c2[C@@]1(C)C1=C(C3=O)[C@@H]2CCC(=O)[C@@]2(C)C[C@H]1OC(C)=O [wortmannin, reference compound] | blocked B6V10-induced glucose transport

Source: patent publication US20070066682A1, “Arylalkylamine vanadium (V) salts for the treatment and/or prevention of Diabetes mellitus” (priority 2005, published 2007)
